Measurements as given in patent US20240252510A1, “COMPOSITION CONTAINING HOMOHARRINGTONINE AS ACTIVE INGREDIENT FOR PREVENTING OR TREATING MUSCLE DISEASES” (RESEARCH COOPERATION FOUNDATION OF YEUNGNAM UNIVERSITY, priority 2021, published 2024).
“Also recorded” adds a separate entry of the source. At least one structure is not confirmed: it was looked up by name or label, or the drawing left a doubt.

Experiments:
[1] = test system: high-fat diet-induced obese mice; assay: High-fat diet-induced obese animal model: body weight, dietary intake, gastrocnemius weight; format: in vivo, C57BL/6 male mice; conditions: high-fat diet-fed mice, vs phosphate-buffered saline group
[2] = test system: old mice; assay: Old mouse model: body weight, dietary intake, gastrocnemius weight; format: in vivo, 18-month-old C57BL/6 mice; conditions: 0.545 μg/g i.p. three times a week, after sacrifice, vs control group
Protocol: An 18-month-old C57BL/6 was purchased, and maintained in the same breeding environment as above the high-fat diet-induced animal model, and fed with a normal chow diet during the experiment. After adapting the old mice to the breeding environment for 1 week, they were randomly divided into a control group and an experimental group, and phosphate-buffered saline was administered to the control group and homoharringtonine (0.545 μg/g body weight) was administered to the experimental group intraperitoneally three times a week for more than 4 months.

[3] = test system: animal model with lower limb fixation-induced muscular atrophy; assay: Animal model with lower limb fixation-induced muscular atrophy: body weight, dietary intake, muscle weights; format: in vivo, C57BL/6 male mice; conditions: 3 weeks of fixation, 0.545 μg/g i.p. three times a week for 4 weeks
Protocol: 8-week-old C57BL/6 male mice were adapted to the breeding environment for 1 week and then treated with homoharringtonine for 1 week, and the left lower limb was fixed using a stapler and maintained for 3 weeks. The animal model with lower limb fixation-induced muscular atrophy is an animal model for inducing muscular atrophy by reducing a load of body weight, and induction was conducted using a skin stapler (Manipler AZ, Utsunomiya, Tochigi, Japan) according to a method of Caron et al. (A novel hindlimb immobilization procedure for studying skeletal muscular atrophy and recovery in mouse. J Appl Physiol. 2009 June; 106(6):2049-59.). The unfixed right side was used as a control group.
For a total of 4 weeks from 1 week before fixation to 3 weeks of fixation, phosphate-buffered saline was administered to the control group and homoharringtonine (0.545 μg/g body weight) was administered to the experimental group three times a week intraperitoneally.

[4] = test system: old mice; assay: Grip strength test in old mice; format: in vivo, 18-month-old C57BL/6 mice; conditions: another experimental group, 6 months of injection, vs control group
[5] = test system: old mice; assay: Inverted cling test (muscle strength) in old mice; format: in vivo, 18-month-old C57BL/6 mice; conditions: after administering for 14 weeks, 0.545 μg/g i.p. three times a week, vs control group

## COC(=O)C[C@](O)(CCCC(C)(C)O)C(=O)O[C@@H]1C(OC)=C[C@]23CCCN2CCc2cc4c(cc2[C@H]13)OCO4 [homoharringtonine]
[1]; 0.545 μg/g body weight i.p. three times a week for 8 weeks, from 2 weeks after drug injection
  body weight (gain): significantly reduced; also recorded: significantly lower
[1]; 0.545 μg/g i.p. three times a week for 8 weeks
  weight of gastrocnemius (corrected by body weight): significantly higher
[2]
  weight of gastrocnemius: significantly higher
[3]; control group showed reduction
  tibialis muscle weight, fixed left leg vs unfixed right leg: no statistically significant difference between the fixed and unfixed legs
[3]; control group showed significant reduction
  gastrocnemius weight, fixed left leg vs unfixed right leg: no significant reduction in muscle weight by fixation; also recorded: no statistically significant difference between the fixed and unfixed legs
[4]
  grip strength after 6 months of administration: significantly higher; also recorded: significantly enhanced
[5]
  cling time (duration of inverted clinging): significantly higher
